Screen size: about 400,000 compounds; about 13,000 (3.2%) were called active. The shares of active, inactive and inconclusive entries below differ from those in the screen. The call rests on the fitted dose curve; in most records, active means well fitted cell-killing curve with a large enough effect; inconclusive means small, poorly fitted or top-dose-only effect, or effect the other way; inactive means flat fitted curve, though single readings scatter. Potencies of inconclusive entries are doubtful fits and often do not repeat.
Assay: qHTS assay for MDR1-selective chemotherapeutics: Primary screen using the drug-selected MDR subline cells KB-V1; further: nearly all actives have a fitted effect of over 60% in size
Conditions: KB-V1 MDR cells viability, CellTiter-Glo, 72 h; activity change, negative = cytotoxicity: at 46.1 µM (top of the series)
Summary of the method: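 Luminescent ATP read-out (CellTiter-Glo, 10 min) measures survival of drug-selected KB-V1 MDR cells after 72 h, 37 degrees C compound exposure. Medium: phenol-red-free DMEM, 10% FBS. Values from fitted concentration-response curves.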
In the case of `Cn1c(=O)oc2cc(S(=O)(=O)N3CCOCC3)ccc21`, the Potency is reported as inconclusive: 7.31 µM [rising, partial curve, poor fit].
In the case of `Cc1ccc(Nc2nnc(SCC(=O)Nc3cccc(S(=O)(=O)NC4=NCCCCC4)c3)s2)cc1`, the Potency is reported as inconclusive: 14.6 µM [rising, partial curve, poor fit].
With `O=C(COC(=O)COc1ccc2ccccc2c1)Nc1cc(C(F)(F)F)ccc1N1CCOCC1` the Potency was inconclusive: 0.731 µM [cytotoxic, full curve, poor fit].
For `CC(=O)c1ccc(NC(=O)c2ccc3c(c2)N(Cc2cccc(Cl)c2)C(=O)c2ccccc2S3(=O)=O)cc1`, the “activity change, negative = cytotoxicity” value was inactive: -17.5%.
In the case of `COC(=O)c1ccccc1NC(=O)CSc1nc(-c2ccccc2)cc(C(F)(F)F)n1`, the “activity change, negative = cytotoxicity” value is reported as inactive: -17.8%.
In the case of `O=C(CSc1nnc(-c2cccnc2)n1C1CCCCC1)NC1CCCCC1`, the Potency is reported as active: 18.4 µM.
In the case of `COc1ccc(CNC(=O)Cn2ccc3cc(S(=O)(=O)N4CCCCC4)ccc32)c(OC)c1`, the “activity change, negative = cytotoxicity” value is reported as inactive: -6.24%.
In the case of `C/C(=N\NC(=O)COc1cccc(C)c1)c1ccc2ccccc2c1O`, the “activity change, negative = cytotoxicity” value is reported as inactive: -19%.
In the case of `Cc1cc(Cl)ccc1NC(=O)CN1C(=O)CSc2ccc(S(=O)(=O)N(C)C)cc21`, the “activity change, negative = cytotoxicity” value is reported as inactive: 29%.
With `COc1ccc(CNCCC(c2ccc(F)cc2)c2ccc(OC(C)C)cc2)cc1OC` (stereo not given) the Potency was inconclusive: 29.1 µM [cytotoxic, single point].
With `CS(=O)(=O)c1ccc2nc(NC(=O)Nc3cccc(Cl)c3)sc2c1` the Potency was inconclusive: 29.1 µM [cytotoxic, single point].
In the case of `O=C(OCC(=O)N1CCCC1)c1cc2c(cc1[N+](=O)[O-])OCCO2`, the Potency is reported as inconclusive: 0.103 µM [rising, full curve].
With `O=C1NC2(CCCCC2)C(=O)N1CCS(=O)(=O)Oc1ccccc1` the activity change, negative = cytotoxicity was inconclusive: -30.7% [cytotoxic].
In the case of `CCN(CC)S(=O)(=O)c1ccc(/C=C/C(=O)OCC(=O)NNC(=O)c2ccc(OC)cc2)cc1`, the Potency is reported as inconclusive: 29.1 µM [rising, single point].
With `CC(C)C[C@H]1CN(CCCC[C@H]2CNC(=O)C(=O)N2Cc2ccccc2)C(=O)C(=O)N1CC1CCCCC1` the Potency was inconclusive: 11.6 µM [rising, single point].
For `O=C(Cn1cnc2sc(-c3ccccc3)cc2c1=O)NCc1ccccc1`, the “activity change, negative = cytotoxicity” value was inactive: -1.6%.
With `CCOC(=O)C1=CCN(S(=O)(=O)c2ccc(C)cc2)C1c1ccc(Br)cc1` (stereo not given) the Potency was inconclusive: 29.1 µM [cytotoxic, single point].
In the case of `O=C(/C=C/c1ccco1)Nc1cccc(C(=O)Nc2ccccc2C(=O)O)c1`, the Potency is reported as inconclusive: 18.4 µM [rising, single point].
With `COc1ccc(NC(=S)NCCCN2CCCC2)cc1Cl` the “activity change, negative = cytotoxicity” value was inactive: -0.496%.
For `CC(=O)c1ccc(NS(=O)(=O)c2cc3[nH]c(=O)c(=O)[nH]c3cc2C)cc1`, the Potency was inconclusive: 20.6 µM [rising, single point].
In the case of `FC(F)(F)c1cccc(OCc2noc(-c3ccsc3)n2)c1`, the Potency is reported as inconclusive: 29.1 µM [rising, single point].
With `CN(CC(=O)O)S(=O)(=O)c1ccc2[nH]c(=O)c(=O)[nH]c2c1` the Potency was inconclusive: 16.4 µM [rising, partial curve, poor fit].
For `CN(CC(=O)Nc1ccc(F)c(F)c1F)C(=O)CCCc1nc2ccccc2c(=O)[nH]1`, the Potency was inconclusive: 0.184 µM [cytotoxic, full curve].
In the case of `C/C=C/C(=O)N(CC)c1ccccc1C`, the “activity change, negative = cytotoxicity” value is reported as inactive: 0.413%.
For `Cc1cc(C)c(CN2CCC(n3nccc3NC(=O)CCOc3ccccc3)CC2)cc1C`, the Potency was inconclusive: 29.1 µM [cytotoxic, partial curve, poor fit].
In the case of `CCOC(=O)C1=C(C)N(c2ccc(C)cc2)C(=O)/C1=C\c1cccs1`, the Potency is reported as inconclusive: 9.2 µM [cytotoxic, partial curve].
For `CN1CCN(CCc2cn3ncc(C#N)c3nc2-c2ccc(F)cc2)CC1`, the activity change, negative = cytotoxicity was inconclusive: 2.63%.
With `CCOc1cc(C(=O)Nc2cnccn2)cc(OCC)c1OCC` the Potency was inconclusive: 29.1 µM [cytotoxic, single point].
For `COc1ccccc1N1CCN(C(c2ccc(C)cc2)c2nnnn2C(C)C)CC1` (stereo not given), the Potency was inconclusive: 0.184 µM [cytotoxic, partial curve, poor fit].
With `COc1cc2c(cc1OC)C(COc1ccccc1OC)N(C(=O)c1ccco1)CC2` (stereo not given) the Potency was inconclusive: 2.31 µM [cytotoxic, partial curve, poor fit].
In the case of `COc1cc(/C=N/Nc2nc3c(c(=O)n(C)c(=O)n3C)n2Cc2ccccc2)ccc1OC(=O)c1ccco1`, the Potency is reported as active: 9.2 µM.
With `CC(CCC(C)C(C)(C)C)[C@@H]1CC[C@H]2C3C[C@H](OS(O)(=S)=S)[C@H]4C[C@H](OS(O)(=S)=S)[C@@H](OS(O)(=S)=S)C[C@]4(C)[C@H]3CC[C@]12C` (stereo not given in full) (tested in a mixture with another compound) the “activity change, negative = cytotoxicity” value was inactive: -14.6%.
In the case of `Cc1ccccc1Cn1nc(C)c(NC(=O)c2cc(-c3ccc(F)cc3)on2)c1C`, the “activity change, negative = cytotoxicity” value is reported as inactive: -2.23%.
For `Cc1ccc(S(=O)(=O)N(C)C)cc1NC(=O)C(C)N(C)Cc1sccc1C` (stereo not given), the Potency was inconclusive: 5.8 µM [cytotoxic, full curve].
With `CSc1ccc(CCNC(=O)CCc2c(C)nc3c(-c4ccccc4)c(C)nn3c2C)cc1` the “activity change, negative = cytotoxicity” value was inactive: -15.4%.
For `Cn1nc(C(C)(C)C)cc1C(=O)N1CCCC(c2cc(C(=O)Nc3ccccc3Cl)no2)C1` (stereo not given), the Potency was inconclusive: 9.2 µM [cytotoxic, partial curve].
For `CCCc1c(-c2ccccc2)ncn1Cc1ccccc1OC`, the Potency was active: 18.4 µM.
In the case of `O=C(C1CCCN(S(=O)(=O)c2cccc3nonc23)C1)N1CCN(c2cccc(Cl)c2)CC1` (stereo not given), the Potency is reported as inconclusive: 23.1 µM [cytotoxic, single point].
For `CC(NC(=O)c1ccc2ccccc2n1)c1ccc(S(N)(=O)=O)cc1` (stereo not given), the “activity change, negative = cytotoxicity” value was inactive: -14.4%.
For `COC(=O)[C@]12CCCCC=C1N(Cc1ccc3c(c1)OCO3)C(=O)[C@H](CC(=O)N1CCSCC1)C2`, the Potency was inconclusive: 2.31 µM [cytotoxic, partial curve, poor fit].
With `CCCn1c(=N)c(C(=O)NCc2cccnc2)cc2c(=O)n3cc(C)ccc3nc21` the Potency was inconclusive: 20.6 µM [rising, single point].
For `CCn1cc(C2N3CC4(CC)CN2CC(CC)(C3)C4=O)c2ccccc21` (stereo not given), the “activity change, negative = cytotoxicity” value was inactive: 4.1%.
In the case of `CCc1ccc(NC(=O)c2cc(-c3cccs3)on2)cc1`, the Potency is reported as inconclusive: 25.9 µM [rising, single point].
With `COc1cccc(CN(C)C(=O)c2ccc(OCC(=O)Nc3cccc(C(F)(F)F)c3)c(OC)c2)c1` the Potency was active: 4.11 µM.
In the case of `C=C[C@H]1CN2CC[C@H]1C[C@@H]2[C@@H](O)c1ccnc2ccc(OC)cc12`, the Potency is reported as inconclusive: 23.1 µM [cytotoxic, single point].
For `C=CCn1nc2ccccc2c1OCCO`, the activity change, negative = cytotoxicity was inconclusive: 7.01%.
In the case of `COc1ccc(C2=CC3=C(Br)C(=O)C(C)(O)C(=O)C3=CO2)cc1` (stereo not given), the “activity change, negative = cytotoxicity” value is reported as inactive: 3.17%.
For `CC(Oc1cccc2cccnc12)C(=O)N/N=C/c1ccccc1` (stereo not given), the Potency was inconclusive: 29.1 µM [cytotoxic, single point].
For `COc1ccccc1N1CCN(C(=O)c2ccc(COc3cccc4c3OC(C)(C)C4)cc2)CC1`, the Potency was inconclusive: 10.3 µM [cytotoxic, partial curve].
In the case of `O=C(/C=C/c1ccc(Cl)cc1)N1CCN(c2ccc([N+](=O)[O-])c(N3CCOCC3)c2)CC1`, the Potency is reported as active: 2.31 µM.
With `O=C1Nc2ccccc2-n2nnnc2C1N1CCN(c2ccccn2)CC1` (stereo not given) the Potency was inconclusive: 16.4 µM [cytotoxic, partial curve, poor fit].
In the case of `COc1cccc(C(=O)/C=C/c2ccc(N3CCCCC3)c([N+](=O)[O-])c2)c1`, the Potency is reported as inconclusive: 18.4 µM [cytotoxic, single point].
For `CCn1c(N)[n+](CC(=O)Nc2ccc(SC(F)F)cc2)c2ccccc21`, the Potency was inconclusive: 29.1 µM [cytotoxic, single point].
For `Cc1cc(C)c2c(=O)c3c(oc2c1)C(=O)N(Cc1ccc(F)cc1)C3c1cccc(O)c1` (stereo not given), the Potency was inconclusive: 23.1 µM [cytotoxic, partial curve].
In the case of `Cc1cc(C)c2c(c1)cc(C)c1nnc(SCC(=O)Nc3ccc(S(=O)(=O)N4CCCCC4)cc3)n12`, the Potency is reported as active: 18.4 µM.
With `CC(=O)Oc1c(Cl)cc(Cl)cc1/C=C/c1ccc2ccccc2n1` the Potency was inconclusive: 18.4 µM [cytotoxic, single point].
For `C#CCOc1ccc(C2C3=C(CCCC3=O)N(CC(=O)O)C3=C2C(=O)CCC3)cc1Br`, the “activity change, negative = cytotoxicity” value was inactive: 7.11%.
With `CC(C)c1nnc(NC(=O)c2cccnc2)s1` the Potency was inconclusive: 29.1 µM [rising, single point].
For `CCOc1ccc(CONS(=O)(=O)c2ccc(NC(C)=O)cc2)cc1Cl`, the Potency was inconclusive: 29.1 µM [cytotoxic, single point].
With `O=C(O)CN1C(=O)/C(=C\c2cccc(OCc3ccccc3)c2)SC1=S` the Potency was inconclusive: 29.1 µM [rising, single point].
With `CCOC(=O)C1=C[C@@H](C(C)C)N(S(=O)(=O)c2ccc([N+](=O)[O-])cc2)[C@H]1c1ccccc1` the Potency was inconclusive: 29.1 µM [cytotoxic, single point].
For `COc1ccccc1NC(=O)N(C1CCCC1)C1CCN(C(C)=O)CC1`, the Potency was inconclusive: 29.1 µM [rising, single point].
In the case of `C#CC[N+]1(CC#Cc2ccccc2)CCCC1`, the “activity change, negative = cytotoxicity” value is reported as inactive: 0%.
With `Cc1ccc(C)c(NC(=O)CSc2nc3ccc(N4C(=O)c5ccccc5C4=O)cc3s2)c1` the Potency was inconclusive: 14.6 µM [rising, partial curve, poor fit].
With `CCc1ccccc1NS(=O)(=O)c1cc2c3c(c1)CCN3C(=O)CC2` the Potency was inconclusive: 18.4 µM [cytotoxic, single point].

— PubChem BioAssay AID1347076 (National Center for Advancing Translational Sciences (NCATS), 2019)
On the % scale 0 is the no-effect control and ±100 the full control effect; potency means the concentration at half of the fitted maximal effect.
